Among the data in publication PMC11142378 are binding values, retold here.

The target in this test is Carbon-flow-regulator A (CfrA) (Synechocystis sp. PCC 6803). Put plainly: affinity purification with mass spectrometry; anti-CfrA serum cross-linked (BS3) to Protein A Dynabeads; crude extracts of Pars-cfrA, ΔglgC/Pars-cfrA and ΔglnB/Pars-cfrA cells after 24 h arsenite, nitrogen-replete; MES buffer (25 mM Mes pH 6.5, 5 mM CaCl2, 10 mM MgCl2, 20% glycerol); overnight at 4°C; preimmune serum as control; precipitate analysed by LC-MS/MS.

These are yes or no findings as the source states them, for the method shown. Binding seen in cells or lysates may run through a third protein. Here binding means that the protein was enriched with, or labelled near, the bait; the list need not be complete.

B1: 2,3-Phosphoglycerate-independent PGAM (enzyme, UniProt P74507 1-532)
chain: MAEAPIAPVVLVILDGWGYRPDTRANAIAQANTPIMDSLIAAYPNTLVNTSGKDVGLPKGQMGNSEVGHLNLGAGRVVPQELVRISDAIEDGTFFDNQALIEVCQRVRDRRGKLHLIGLCSDGGVHSHIDHLLGLIDLAKLQGISQLCIHAITDGRDTPTNEGAHFVQQIQAHLEKIGLGRIVSVSGRYYALDRDRRWDRVEKAYRVMTEDGVGDGRSAAQVIKDYYASDITDEFIPPTRIGAGAIASGDGVIFYNFRPDRARQLCYALVNPSFDGFPRERIQPLDFVTFTQYDPALPVVVAFEPQNLNNILGEIISRQGMKQFRTAETEKYPHVTYFFNGGLEQPFAGEDRELIQSPMVSTYDKAPQMSAKAVTDAVCRAMEKGIYSLVVVNYANPDMVGHTGKLKEAIQAIETVDLNLGRLLASAAKVGGTVLITADHGNAEYMSDESGNPWTAHTTNPVPFILVEGEGRKIPGHGGEVKLREGGKLADIAPTILDILQLPVPAEMTGKTLIDQPLVEIKANRTPVNLSR
Take B1: the binding entry is recorded as “binds”.
